The record followed here is the supplement of paper PMC12595434, “Development of retinoid nuclear receptor pathway antagonists through targeting aldehyde dehydrogenase 1A3” (iScience, 2025).

Protein sequences, listed by entry. Tags and fused reporters are not part of them. Lines headed by an entry give the natural chain unless they say otherwise; changes in a name come on top.
UniProt Q9NVM1: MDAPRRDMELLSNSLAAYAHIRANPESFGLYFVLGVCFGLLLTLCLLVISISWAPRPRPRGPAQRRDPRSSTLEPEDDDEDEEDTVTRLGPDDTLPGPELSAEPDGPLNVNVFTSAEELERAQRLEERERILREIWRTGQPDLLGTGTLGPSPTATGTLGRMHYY
UniProt Q9NX70: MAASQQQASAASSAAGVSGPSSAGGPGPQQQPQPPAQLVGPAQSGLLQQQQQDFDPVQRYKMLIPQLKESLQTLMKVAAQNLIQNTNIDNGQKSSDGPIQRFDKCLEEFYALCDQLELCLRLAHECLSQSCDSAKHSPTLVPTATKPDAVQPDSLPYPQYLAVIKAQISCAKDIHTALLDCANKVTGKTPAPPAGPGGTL
UniProt Q9P0V9: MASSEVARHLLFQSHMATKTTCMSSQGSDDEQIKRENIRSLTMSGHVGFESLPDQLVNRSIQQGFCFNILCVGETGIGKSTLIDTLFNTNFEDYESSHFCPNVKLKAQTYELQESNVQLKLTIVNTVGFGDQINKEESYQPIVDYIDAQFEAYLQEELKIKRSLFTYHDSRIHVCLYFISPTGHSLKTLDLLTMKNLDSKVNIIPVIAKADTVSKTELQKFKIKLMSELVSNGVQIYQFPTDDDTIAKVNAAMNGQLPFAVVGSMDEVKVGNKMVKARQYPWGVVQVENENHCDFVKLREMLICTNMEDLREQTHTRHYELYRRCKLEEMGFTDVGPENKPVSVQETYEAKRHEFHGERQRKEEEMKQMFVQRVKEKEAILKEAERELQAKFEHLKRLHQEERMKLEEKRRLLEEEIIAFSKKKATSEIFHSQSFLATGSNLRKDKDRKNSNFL
UniProt Q9P0S2: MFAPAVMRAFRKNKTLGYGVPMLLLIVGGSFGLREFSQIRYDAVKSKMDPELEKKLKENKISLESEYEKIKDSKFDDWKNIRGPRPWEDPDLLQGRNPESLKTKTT
UniProt Q9NXN4: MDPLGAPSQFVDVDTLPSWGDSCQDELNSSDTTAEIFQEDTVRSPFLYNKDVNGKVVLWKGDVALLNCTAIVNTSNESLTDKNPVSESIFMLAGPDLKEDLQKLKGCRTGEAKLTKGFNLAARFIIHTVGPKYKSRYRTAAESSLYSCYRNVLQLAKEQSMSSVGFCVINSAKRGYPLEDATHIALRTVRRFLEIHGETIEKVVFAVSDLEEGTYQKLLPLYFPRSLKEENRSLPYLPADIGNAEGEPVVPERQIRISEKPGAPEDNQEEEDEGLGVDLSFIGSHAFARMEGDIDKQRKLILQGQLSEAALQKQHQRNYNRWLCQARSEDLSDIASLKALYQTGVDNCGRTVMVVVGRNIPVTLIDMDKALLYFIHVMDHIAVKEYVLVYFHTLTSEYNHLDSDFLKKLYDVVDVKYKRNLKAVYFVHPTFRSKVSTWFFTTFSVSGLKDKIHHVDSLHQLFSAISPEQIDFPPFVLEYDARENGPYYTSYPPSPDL
UniProt Q9P2D0: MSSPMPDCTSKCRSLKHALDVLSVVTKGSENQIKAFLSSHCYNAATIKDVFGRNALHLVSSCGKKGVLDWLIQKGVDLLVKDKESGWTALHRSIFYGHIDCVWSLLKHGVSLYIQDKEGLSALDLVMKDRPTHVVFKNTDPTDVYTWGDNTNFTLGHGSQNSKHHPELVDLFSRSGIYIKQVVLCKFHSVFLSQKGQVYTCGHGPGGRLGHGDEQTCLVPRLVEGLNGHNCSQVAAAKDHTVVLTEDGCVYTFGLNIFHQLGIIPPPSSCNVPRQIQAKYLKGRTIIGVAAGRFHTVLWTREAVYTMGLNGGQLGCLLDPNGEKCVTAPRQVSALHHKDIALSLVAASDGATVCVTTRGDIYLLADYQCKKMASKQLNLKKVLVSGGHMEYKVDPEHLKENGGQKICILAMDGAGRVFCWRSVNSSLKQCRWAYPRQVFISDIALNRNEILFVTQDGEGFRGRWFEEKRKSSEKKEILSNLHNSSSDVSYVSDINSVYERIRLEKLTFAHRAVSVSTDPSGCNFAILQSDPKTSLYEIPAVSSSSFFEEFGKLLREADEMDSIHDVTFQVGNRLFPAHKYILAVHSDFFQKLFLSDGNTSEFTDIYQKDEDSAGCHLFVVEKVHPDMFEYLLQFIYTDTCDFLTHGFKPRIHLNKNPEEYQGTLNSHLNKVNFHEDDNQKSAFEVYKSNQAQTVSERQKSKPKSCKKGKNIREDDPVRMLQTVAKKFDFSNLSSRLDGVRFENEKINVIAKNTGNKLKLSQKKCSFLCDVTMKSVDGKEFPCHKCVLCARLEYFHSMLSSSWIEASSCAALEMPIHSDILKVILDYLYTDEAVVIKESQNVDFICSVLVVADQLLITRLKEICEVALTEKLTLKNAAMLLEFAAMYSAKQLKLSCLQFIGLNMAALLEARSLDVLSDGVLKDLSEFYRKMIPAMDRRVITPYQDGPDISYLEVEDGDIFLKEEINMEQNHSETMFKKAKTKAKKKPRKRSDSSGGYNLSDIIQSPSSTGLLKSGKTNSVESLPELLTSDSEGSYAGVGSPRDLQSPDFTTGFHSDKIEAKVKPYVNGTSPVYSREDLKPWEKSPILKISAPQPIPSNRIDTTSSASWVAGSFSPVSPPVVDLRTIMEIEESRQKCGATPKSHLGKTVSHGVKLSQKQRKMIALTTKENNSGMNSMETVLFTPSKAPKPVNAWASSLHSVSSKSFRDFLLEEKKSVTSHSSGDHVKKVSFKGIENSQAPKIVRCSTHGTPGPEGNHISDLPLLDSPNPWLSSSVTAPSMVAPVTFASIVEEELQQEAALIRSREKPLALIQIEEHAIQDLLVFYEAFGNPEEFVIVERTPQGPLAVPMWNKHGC
UniProt Q9NY33: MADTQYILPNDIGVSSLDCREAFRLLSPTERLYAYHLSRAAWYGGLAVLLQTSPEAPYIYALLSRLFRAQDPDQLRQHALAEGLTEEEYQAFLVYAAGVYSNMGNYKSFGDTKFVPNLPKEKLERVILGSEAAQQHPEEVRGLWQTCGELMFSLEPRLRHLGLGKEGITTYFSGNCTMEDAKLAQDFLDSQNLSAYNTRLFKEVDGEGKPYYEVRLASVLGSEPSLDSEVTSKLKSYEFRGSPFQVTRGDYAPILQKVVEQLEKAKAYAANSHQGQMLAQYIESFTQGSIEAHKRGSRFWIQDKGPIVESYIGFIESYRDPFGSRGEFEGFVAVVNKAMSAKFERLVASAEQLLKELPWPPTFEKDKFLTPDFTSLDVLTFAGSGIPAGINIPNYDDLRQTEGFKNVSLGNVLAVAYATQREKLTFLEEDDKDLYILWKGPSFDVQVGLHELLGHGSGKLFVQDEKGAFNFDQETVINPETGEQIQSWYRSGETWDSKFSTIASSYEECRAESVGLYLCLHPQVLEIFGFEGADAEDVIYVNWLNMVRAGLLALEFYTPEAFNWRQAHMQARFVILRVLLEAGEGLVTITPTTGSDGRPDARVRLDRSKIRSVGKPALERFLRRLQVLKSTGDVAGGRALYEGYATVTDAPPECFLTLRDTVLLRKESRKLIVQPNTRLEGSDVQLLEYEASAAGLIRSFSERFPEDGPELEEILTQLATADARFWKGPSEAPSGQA
UniProt Q9NZT2: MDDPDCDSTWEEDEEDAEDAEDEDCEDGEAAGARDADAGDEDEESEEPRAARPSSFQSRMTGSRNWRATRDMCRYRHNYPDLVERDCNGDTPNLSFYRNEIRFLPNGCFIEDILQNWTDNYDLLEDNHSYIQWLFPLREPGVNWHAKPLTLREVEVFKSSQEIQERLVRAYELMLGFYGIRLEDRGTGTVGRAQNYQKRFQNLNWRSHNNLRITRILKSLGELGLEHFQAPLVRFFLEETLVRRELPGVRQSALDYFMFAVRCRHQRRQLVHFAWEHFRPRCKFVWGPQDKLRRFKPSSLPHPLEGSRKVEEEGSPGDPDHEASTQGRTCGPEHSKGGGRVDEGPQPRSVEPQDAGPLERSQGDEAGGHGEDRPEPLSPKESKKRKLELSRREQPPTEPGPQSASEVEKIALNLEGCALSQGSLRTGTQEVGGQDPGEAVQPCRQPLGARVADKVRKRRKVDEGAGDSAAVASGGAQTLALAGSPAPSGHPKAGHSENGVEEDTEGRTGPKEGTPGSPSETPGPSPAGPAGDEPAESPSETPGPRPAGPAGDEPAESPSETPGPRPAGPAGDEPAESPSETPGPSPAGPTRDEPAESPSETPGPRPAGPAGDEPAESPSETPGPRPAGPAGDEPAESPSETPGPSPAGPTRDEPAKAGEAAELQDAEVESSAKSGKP
UniProt Q9P1Q0: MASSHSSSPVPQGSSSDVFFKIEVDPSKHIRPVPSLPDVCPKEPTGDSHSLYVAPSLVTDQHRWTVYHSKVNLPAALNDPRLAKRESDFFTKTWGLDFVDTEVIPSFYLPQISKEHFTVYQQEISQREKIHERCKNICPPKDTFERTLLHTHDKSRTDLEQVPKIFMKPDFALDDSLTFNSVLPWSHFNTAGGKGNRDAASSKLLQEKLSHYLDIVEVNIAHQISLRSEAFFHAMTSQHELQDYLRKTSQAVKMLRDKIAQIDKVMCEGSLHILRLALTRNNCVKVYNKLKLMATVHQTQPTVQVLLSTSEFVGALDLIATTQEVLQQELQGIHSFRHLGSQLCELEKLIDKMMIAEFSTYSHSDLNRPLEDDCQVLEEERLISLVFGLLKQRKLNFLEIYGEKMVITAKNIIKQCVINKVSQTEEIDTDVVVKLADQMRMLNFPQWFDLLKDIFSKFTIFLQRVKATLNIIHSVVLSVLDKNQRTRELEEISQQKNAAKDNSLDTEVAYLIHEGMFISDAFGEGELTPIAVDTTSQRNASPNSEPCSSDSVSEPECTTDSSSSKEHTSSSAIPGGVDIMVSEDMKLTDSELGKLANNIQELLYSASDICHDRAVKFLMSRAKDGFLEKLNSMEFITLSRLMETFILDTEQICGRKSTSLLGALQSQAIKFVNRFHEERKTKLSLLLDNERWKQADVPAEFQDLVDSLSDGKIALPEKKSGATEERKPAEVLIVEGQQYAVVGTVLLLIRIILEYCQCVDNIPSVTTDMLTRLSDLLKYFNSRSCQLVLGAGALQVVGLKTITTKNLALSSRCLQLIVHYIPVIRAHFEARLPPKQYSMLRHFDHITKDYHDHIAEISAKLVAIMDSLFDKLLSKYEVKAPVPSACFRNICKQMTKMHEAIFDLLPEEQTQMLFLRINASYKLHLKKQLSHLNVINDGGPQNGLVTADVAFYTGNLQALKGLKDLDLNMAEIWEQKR
UniProt Q9NVS9: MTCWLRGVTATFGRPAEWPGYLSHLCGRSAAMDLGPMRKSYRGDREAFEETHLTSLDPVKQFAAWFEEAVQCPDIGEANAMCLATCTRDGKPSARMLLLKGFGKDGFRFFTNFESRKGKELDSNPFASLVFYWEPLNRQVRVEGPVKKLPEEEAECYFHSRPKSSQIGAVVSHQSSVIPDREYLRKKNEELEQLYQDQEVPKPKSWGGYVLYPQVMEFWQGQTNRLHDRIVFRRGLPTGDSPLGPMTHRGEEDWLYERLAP
UniProt Q9P107: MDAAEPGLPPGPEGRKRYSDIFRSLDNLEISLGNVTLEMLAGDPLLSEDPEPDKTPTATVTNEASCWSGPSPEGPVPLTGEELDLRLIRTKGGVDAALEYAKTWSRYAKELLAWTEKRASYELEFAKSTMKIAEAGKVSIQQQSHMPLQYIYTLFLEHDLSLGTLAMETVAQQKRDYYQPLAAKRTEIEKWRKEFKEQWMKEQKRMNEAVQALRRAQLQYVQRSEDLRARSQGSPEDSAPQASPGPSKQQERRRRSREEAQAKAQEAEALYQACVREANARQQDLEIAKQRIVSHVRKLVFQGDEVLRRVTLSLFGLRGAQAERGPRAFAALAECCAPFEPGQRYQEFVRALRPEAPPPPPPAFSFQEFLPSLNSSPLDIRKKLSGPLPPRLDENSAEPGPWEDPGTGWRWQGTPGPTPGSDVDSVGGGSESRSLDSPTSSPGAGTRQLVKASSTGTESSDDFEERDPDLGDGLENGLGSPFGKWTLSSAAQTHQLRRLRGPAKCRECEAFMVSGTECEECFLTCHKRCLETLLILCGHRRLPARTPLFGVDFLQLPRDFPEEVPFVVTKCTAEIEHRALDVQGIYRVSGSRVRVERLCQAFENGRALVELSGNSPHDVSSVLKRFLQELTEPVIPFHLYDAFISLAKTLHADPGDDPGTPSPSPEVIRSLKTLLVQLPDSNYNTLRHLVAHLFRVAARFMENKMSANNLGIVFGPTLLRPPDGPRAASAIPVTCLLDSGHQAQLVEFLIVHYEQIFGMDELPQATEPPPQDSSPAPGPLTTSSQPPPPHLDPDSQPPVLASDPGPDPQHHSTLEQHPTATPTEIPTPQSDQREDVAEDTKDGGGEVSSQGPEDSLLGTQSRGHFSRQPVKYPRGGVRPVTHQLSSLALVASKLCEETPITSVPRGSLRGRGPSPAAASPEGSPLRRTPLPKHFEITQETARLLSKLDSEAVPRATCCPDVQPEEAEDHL
UniProt Q9NZ45: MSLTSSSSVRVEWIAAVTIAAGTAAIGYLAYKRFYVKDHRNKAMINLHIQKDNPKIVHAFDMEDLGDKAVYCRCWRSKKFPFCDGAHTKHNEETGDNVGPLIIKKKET

The other results are listed elsewhere or left out. The data scatter; read single values as rough.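 Many melting curves are irregular; where none melted, Tm was taken as 64 °C.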

Compound in the first test: CCc1cnccc1C(=O)Nc1cc2c(cc1F)NC(=O)CC2
Put plainly: melting temperature shift (DMSO Tm minus MBE1-treated Tm) in cellular thermal proteome profiling; higher = less thermal stabilization by MBE1 (negative = stabilized by MBE1). The conditions noted are these: A375; MBE1 concentration: 100 nM.
For UniProt Q9NVM1, the melting temperature shift was -5.27 °C.
Consider UniProt Q9NX70, for which the melting temperature shift is -0.602 °C.
On to UniProt Q9P0V9, for which the melting temperature shift is -0.852 °C.
Turning to SACS (UniProt Q9NZJ4), the melting temperature shift is -1.02 °C.
Consider GDE1 (UniProt Q9NZC3), for which the melting temperature shift is -3.64 °C.
Take CLIP2 (UniProt Q9UDT6): the melting temperature shift amounted to 0.537 °C.
Regarding DNAJB12 (UniProt Q9NXW2), the melting temperature shift was -0.397 °C.
Regarding UniProt Q9P0S2, the melting temperature shift was -2.23 °C.
On to UGGT2 (UniProt Q9NYU1), for which the melting temperature shift was -0.342 °C.
The same measure, in the same setting: the result for GDAP2 (UniProt Q9NXN4) reads -0.378 °C.
Same read-out and setting: for UniProt Q9P2D1 the value was -6.64 °C.
Take TAB2 (UniProt Q9NYJ8): the melting temperature shift is -0.654 °C.
Turning to ABI2 (UniProt Q9NYB9), the melting temperature shift turned out to be 0.25 °C.
With BCLAF1 (UniProt Q9NYF8), the melting temperature shift is -0.702 °C.
The same measure, in the same setting: for IBTK (UniProt Q9P2D0) the value was 1.06 °C; for SLTM (UniProt Q9NWH9), -1.43 °C; for FAIM (UniProt Q9NVQ4), -0.546 °C.
Still for that read-out and setting: the result for COQ3 (UniProt Q9NZJ6) reads -2.53 °C; that for DPP3 (UniProt Q9NY33), -0.49 °C; that for ZNFX1 (UniProt Q9P2E3), -0.743 °C.
As to HIF1AN (UniProt Q9NWT6), the melting temperature shift was -1.39 °C.
OGFR (UniProt Q9NZT2): the melting temperature shift is -0.756 °C.
For SAE1 (UniProt Q9UBE0), the melting temperature shift was -0.00671 °C.
Regarding DNAJC11 (UniProt Q9NVH1), the melting temperature shift is -0.959 °C.
In the case of UniProt Q9P1Q0, the melting temperature shift is -4.75 °C.
Regarding TECR (UniProt Q9NZ01), the melting temperature shift was determined as 0.581 °C.
KLHL42 (UniProt Q9P2K6): the melting temperature shift was -0.0855 °C.
Still for that read-out and setting: for UniProt Q9NWD8 the value was 2.35 °C; for ARL8B (UniProt Q9NVJ2), -2.68 °C.
In the case of PNPO (UniProt Q9NVS9), the melting temperature shift is -0.235 °C.
On to TRMT1 (UniProt Q9NXH9), for which the melting temperature shift is -1.27 °C.
Regarding UCKL1 (UniProt Q9NWZ5), the melting temperature shift stood at 1.26 °C.
On the same count and under the same terms, for XPR1 (UniProt Q9UBH6) the value was -0.275 °C; for UniProt Q9NZU5, 0.159 °C.
For GMIP (UniProt Q9P107), the melting temperature shift stood at 0.585 °C.
In the case of FGFR1OP2 (UniProt Q9NVK5), the melting temperature shift was found to be 0.556 °C.
As for CISD1 (UniProt Q9NZ45), the melting temperature shift was -1.97 °C.
On the same count and under the same terms, for NECAP2 (UniProt Q9NVZ3) the value was -0.83 °C.

Staying with this test, now noted: A375; MBE1 concentration: 1 uM.
In the case of UniProt Q9NVM1, the melting temperature shift was -2.14 °C.
As for UniProt Q9NX70, the melting temperature shift was -3.34 °C.
For the target UniProt Q9P0V9, the melting temperature shift stood at 0.533 °C.
Regarding SACS (UniProt Q9NZJ4), the melting temperature shift was -1.27 °C.
Regarding GDE1 (UniProt Q9NZC3), the melting temperature shift is -2.45 °C.
As to CLIP2 (UniProt Q9UDT6), the melting temperature shift was found to be 0.318 °C.
The same measure, in the same setting: for DNAJB12 (UniProt Q9NXW2) the value was 0.769 °C; for UniProt Q9P0S2, -3.75 °C; for UGGT2 (UniProt Q9NYU1), 0.165 °C.
As to GDAP2 (UniProt Q9NXN4), the melting temperature shift was -0.741 °C.
Still for that read-out and setting: the result for UniProt Q9P2D1 reads -3.76 °C; that for TAB2 (UniProt Q9NYJ8), -0.823 °C; that for ABI2 (UniProt Q9NYB9), 0.342 °C.
On to BCLAF1 (UniProt Q9NYF8), for which the melting temperature shift is -0.379 °C.
As to IBTK (UniProt Q9P2D0), the melting temperature shift came out at 0.934 °C.
Regarding SLTM (UniProt Q9NWH9), the melting temperature shift was -0.849 °C.
The same measure, in the same setting: for FAIM (UniProt Q9NVQ4) the value was -0.376 °C; for COQ3 (UniProt Q9NZJ6), 1.73 °C; for DPP3 (UniProt Q9NY33), 0.651 °C.
For ZNFX1 (UniProt Q9P2E3), the melting temperature shift was -0.0488 °C.
Regarding HIF1AN (UniProt Q9NWT6), the melting temperature shift is -0.324 °C.
Turning to OGFR (UniProt Q9NZT2), the melting temperature shift is -0.237 °C.
In the case of SAE1 (UniProt Q9UBE0), the melting temperature shift turned out to be 0.153 °C.
In the case of DNAJC11 (UniProt Q9NVH1), the melting temperature shift was -0.215 °C.
The same measure, in the same setting: the result for UniProt Q9P1Q0 reads -0.33 °C.
Consider TECR (UniProt Q9NZ01), for which the melting temperature shift was 0.268 °C.
In the case of KLHL42 (UniProt Q9P2K6), the melting temperature shift is 0.605 °C.
For the target UniProt Q9NWD8, the melting temperature shift is -4.58 °C.
For the target ARL8B (UniProt Q9NVJ2), the melting temperature shift was -2.86 °C.
As to PNPO (UniProt Q9NVS9), the melting temperature shift is -0.235 °C.
TRMT1 (UniProt Q9NXH9): the melting temperature shift was -0.636 °C.
Take UCKL1 (UniProt Q9NWZ5): the melting temperature shift came to 0.0855 °C.
Consider XPR1 (UniProt Q9UBH6), for which the melting temperature shift stood at 0.161 °C.
Turning to UniProt Q9NZU5, the melting temperature shift is -0.293 °C.
As to GMIP (UniProt Q9P107), the melting temperature shift was -0.83 °C.
For the target FGFR1OP2 (UniProt Q9NVK5), the melting temperature shift was -0.507 °C.
Still for that read-out and setting: the result for CISD1 (UniProt Q9NZ45) reads -3.5 °C; that for NECAP2 (UniProt Q9NVZ3), 0.0366 °C.
